This assay is described as follows: qHTS Assay for Modulators of Lamin A Splicing. Particulars: HeLa LMNA splicing GFP/RFP minigene ratio, 48 h. In outline:
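S3 HeLa cells stably expressing lamin A-EGFP splicing minigene plus DsRed2, 600 cells/well, 48 h compound exposure at 37C. Laser-scanning cytometry; analysed as GFP (500-530 nm)/RFP (575-640 nm) total intensity ratio; 0.5% DMSO vehicle.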

[1] abbreviates: measured here: GFP splicing reporter channel.
[2] abbreviates: measured here: RFP viability control channel.

Where “and” joins values, the source holds several entries; their conditions need not be identical. Equal entries are not always repeated. The list shows a part of the results. The main result of the screen is listed elsewhere. These columns were measured beside it and carry no call. Most of these compounds were active or inconclusive in the main read-out, so they are no random draw. The note in brackets gives the kind of curve behind each potency; many fits are weak.

Take `COc1ccc(CCn2c(C)nc3c(c(=O)c4ccccc4n3C)c2=O)cc1`: the AC50 (usually the midpoint of the concentration-response curve, whichever way the signal moves) under setting [1] was 0.708 µM [rising, partial curve] and the concentration at half-maximal activity (AC50) under setting [2] is 0.398 µM [rising, full curve, poor fit].

In the case of `CCC(c1nnnn1CS(=O)(=O)c1ccc(C)cc1)N1CCN(c2nc3ccccc3s2)CC1` (centres undefined), the AC50 under setting [2] is 7.08 µM [rising, partial curve].

Turning to `N#Cc1c(NC(=O)c2cc(C3CC3)on2)sc2c1CCC2`, the half-maximal activity concentration (AC50) under setting [2] is 2.82 µM [rising, single point]. In the case of `Cc1cc(NC(=O)c2ccccc2F)ccc1-c1nc2ccccc2s1`, the AC50 under setting [2] was 5.62 µM [falling, partial curve, poor fit].

On to `Cc1ccc(-n2cnc3cc(C(=O)NCCC4=CCCCC4)ccc32)c(C)c1`, for which the half-maximal activity concentration (AC50) under setting [1] is 35.5 µM [falling, single point]. Consider `NC(=S)n1[nH]c(-c2ccc([N+](=O)[O-])cc2)c(N=Nc2ccccc2[N+](=O)[O-])c1=O`, for which the AC50 under setting [2] is 1 µM [rising, single point].

As for `O=C(/C=C/c1ccco1)NCc1ccc(F)cc1`, the AC50 is 0.00794 µM [falling, full curve, poor fit] under setting [1] and 0.00794 µM [falling, full curve, poor fit] under setting [2].

For the molecule `O=C(CSc1nnc(-c2ccc(Cl)cc2)n1-c1ccc(Cl)cc1)N/N=C/c1ccco1`, the half-maximal activity concentration (AC50) under setting [2] is 17.8 µM [falling, single point]. With `CCOC(=O)Cc1ccc(NC(=O)N(Cc2ccc(OC)cc2)C2CCN(C(C)=O)CC2)cc1`, the concentration at half-maximal activity (AC50) under setting [1] was 35.5 µM [rising, partial curve]. Consider `O=C(/C=C/c1ccc(F)cc1)N1CCCN(C(=O)/C=C/c2ccc(F)cc2)CC1`, for which the half-maximal activity concentration (AC50) under setting [2] was 35.5 µM [rising, single point].

In the case of `CCOC(=O)CSc1nnc(-c2cccnc2)n1C`, the AC50 is 0.316 µM [falling, full curve, poor fit] under setting [1] and 0.158 µM [falling, full curve, poor fit] under setting [2]. As for `CCc1ccc(NC(=O)c2sc(-n3nc(C)c(CCC(C)C)c3C)nc2C)cc1`, the concentration at half-maximal activity (AC50) under setting [2] is 12.6 µM [rising, partial curve, poor fit]. `Cc1cc(C(=O)COc2ccccc2Cl)c(C)n1-c1ccc2c(c1)OCO2`: the half-maximal activity concentration (AC50) runs as follows: under setting [1], 7.94 µM [rising, partial curve, poor fit]; under setting [2], 12.6 µM [rising, partial curve]. As for `O=C(NC1CC(=O)N(c2ccc(F)cc2)C1)C1CCCC1` (centres undefined), the AC50 under setting [2] is 3.55 µM [falling, partial curve, poor fit].

As for `O=C(CN1CCN(C(=O)c2ccco2)CC1)Nc1ccc(Cl)c(C(F)(F)F)c1`, under setting [2], the concentration at half-maximal activity (AC50) is 17.8 µM [rising, single point]. Still for that read-out and setting: the value for `CCN(CC)S(=O)(=O)c1cccc(-c2nnc(SCCOc3ccc(Cl)cc3)o2)c1` was 6.31 µM [rising, full curve]. For the molecule `CC1=C(C(N)=O)C(c2ccc3c(c2)OCO3)n2nc(-c3cccc(C)c3)nc2N1` (centres undefined), the concentration at half-maximal activity (AC50) by setting is: under setting [1], 35.5 µM [falling, single point]; under setting [2], 35.5 µM [falling, single point].

Take `O=C(Nc1nc(-c2cc(F)ccc2F)cs1)c1ccccn1`: the concentration at half-maximal activity (AC50) by setting is: under setting [1], 35.5 µM [rising, single point]; under setting [2], 25.1 µM [rising, partial curve].

`O=C(/C=C/c1cccs1)Nc1cccc(NC(=O)/C=C/c2cccs2)n1`: the half-maximal activity concentration (AC50) under setting [2] is 35.5 µM [rising, single point].

With `COc1ccc(Cc2nc(-c3ccc(-n4cccc4)cc3)no2)cc1`, under setting [2], the half-maximal activity concentration (AC50) is 35.5 µM [rising, single point]. The same measure, in the same setting: for `COc1ccc(CCN2C(=S)NC3CC2(C)Oc2ccc([N+](=O)[O-])cc23)cc1OC` (centres undefined) the value was 14.1 µM [rising, single point]; for `NNC(=O)CSCc1nc(-c2ccccc2)cs1`, 0.501 µM [falling, full curve]. On to `Cc1ccc(Nc2nc(-c3ccccc3)nc3ccccc23)cc1`, for which the AC50 was 35.5 µM [falling, partial curve] under setting [1] and 20 µM [falling, partial curve, poor fit] under setting [2].

In the case of `CCc1cccc(CC)c1NC(=S)NCCc1c(C)[nH]c2ccccc12`, the AC50 under setting [1] is 5.62 µM [falling, single point]. On to `CC(C)(C)c1ccc(S(=O)(=O)Nc2cccc(C3OCCCO3)c2)cc1`, for which the AC50 under setting [2] is 14.1 µM [rising, partial curve].

In the case of `COc1ccc(NC(=O)c2ccc(-c3ccc(OC)cc3)s2)cc1`, the half-maximal activity concentration (AC50) was 1.58 µM [falling, full curve, poor fit] under setting [1] and 35.5 µM [falling, single point] under setting [2].

Consider `Cc1ccc(S(=O)(=O)NC(=O)NN2CCCCCC2)cc1`, for which, under setting [1], the half-maximal activity concentration (AC50) was 2 nM [falling, full curve, poor fit] and 14.1 µM [rising, single point] and 17.8 µM [rising, partial curve, poor fit]. As to `O=C1CCc2cc(S(=O)(=O)NCCC(=O)N3CCN(c4cccc(Cl)c4)CC3)ccc2N1`, the AC50 under setting [2] is 35.5 µM [rising, single point]. Take `O=C(Cn1c(-c2cccs2)cc2ccccc21)N1CCN(c2ccc(Cl)cc2)CC1`: the AC50 under setting [1] is 0.0224 µM [rising, full curve, poor fit]. The same measure, in the same setting: for `COc1ccc(-c2cn3c(n2)sc2cc(C(=O)NCCC4=CCCCC4)ccc23)cc1` the value was 0.0224 µM [rising, full curve]. As to `Brc1ccc(-c2nc(N/N=C/c3cccnc3)c3ccccc3n2)cc1`, the AC50 under setting [1] is 17.8 µM [rising, single point] and the AC50 under setting [2] is 15.8 µM [rising, single point]. As for `O=C(NC(=S)Nc1ccccc1Cl)c1csnn1`, the AC50 is 0.891 µM [rising, full curve] under setting [1] and 1.12 µM [rising, full curve] under setting [2]. For the molecule `CCCCn1c(SCc2nnc(-c3ccccc3)o2)nc2c1c(=O)n(C)c(=O)n2C`, the half-maximal activity concentration (AC50) under setting [2] is 4.47 µM [rising, partial curve].

Regarding `CCC1=NN(C(=O)c2ccc(Br)cc2)C(O)(c2ccc(C)cc2)C1` (centres undefined), the half-maximal activity concentration (AC50) under setting [2] was 35.5 µM [rising, single point]. Consider `COc1cc(NC(=O)Nc2ccccc2OC)c(OC)cc1NC(=O)CN1CCCCC1`, for which the half-maximal activity concentration (AC50) was 12.6 µM [falling, single point] under setting [1] and 15.8 µM [falling, single point] under setting [2]. Turning to `N#C/C(=C/c1ccc(N2CCCCC2)o1)C(=O)Nc1ccc2ccccc2c1`, the half-maximal activity concentration (AC50) under setting [1] is 3.98 µM [falling, full curve] and the AC50 under setting [2] was 3.55 µM [falling, full curve]. In the case of `COCCCN1CN(S(=O)(=O)c2ccc(Cl)cc2)c2nc3ccccc3nc21`, the AC50 under setting [1] was 35.5 µM [rising, single point] and the half-maximal activity concentration (AC50) under setting [2] was 12.6 µM [rising, single point]. Take `Cc1ccc([N+](=O)[O-])cc1S(=O)(=O)n1ccnc1C`: under setting [1], the AC50 was 35.5 µM [falling, single point].

With `Cc1ccc(C)n1CCN1CCN(CC(=O)Nc2ccc(S(N)(=O)=O)cc2)CC1`, the AC50 under setting [1] is 1.26 µM [rising, partial curve, poor fit].

Consider `CCN(CC)S(=O)(=O)c1ccc(C(=O)NNC(=O)c2cccs2)cc1`, for which, under setting [2], the AC50 is 2 µM [rising, full curve]. Regarding `N/C(=N\c1nc(CSc2nnnn2-c2ccccc2)cc(=O)[nH]1)Nc1ccccc1`, the AC50 runs as follows: under setting [1], 0.00316 µM [falling, full curve, poor fit]; under setting [2], 0.00355 µM [falling, full curve, poor fit]. With `COc1ccc(C2c3[nH]c4ccccc4c3CCN2Cc2ccoc2)c(F)c1` (centres undefined), the AC50 under setting [2] was 25.1 µM [rising, partial curve]. Still for that read-out and setting: for `O=C(O)C1CC=CCC1C(=O)Nc1ccc(Oc2ccc(Cl)cc2)cc1` (centres undefined) the value was 15.8 µM [rising, single point]; for `COc1cc2c(CCNC(C)=O)c[nH]c2cc1Cl`, 0.001 µM [falling, full curve, poor fit]. Turning to `CCN(CC)S(=O)(=O)c1ccc(Cl)c(C(=O)Nc2cc(C)nn2-c2ccccc2C(F)(F)F)c1`, the AC50 was 12.6 µM [rising, single point] under setting [1] and 31.6 µM [rising, single point] under setting [2]. For the molecule `O=C1C=C(c2ccc(Cl)cc2)C(=O)N1Nc1ccccc1`, the AC50 runs as follows: under setting [1], 14.1 µM [falling, single point]; under setting [2], 14.1 µM [falling, partial curve].

Take `Cc1cc(Br)cc(C)c1NC(=O)c1sc2ncn(Cc3cccc(F)c3)c(=O)c2c1C`: under setting [2], the AC50 was 0.00316 µM [falling, full curve, poor fit]. Consider `CN(C)c1ccc(/C=N/N=C2/NC(=O)/C(=C/c3ccc([N+](=O)[O-])cc3)S2)cc1`, for which the AC50 under setting [1] was 12.6 µM [rising, partial curve]. As to `CCn1c(SC(C)C)nnc1-c1cc(-c2ccccc2)sc1N`, the half-maximal activity concentration (AC50) runs as follows: under setting [1], 12.6 µM [rising, partial curve]; under setting [2], 20 µM [rising, partial curve]. For the molecule `CCCCn1c2c(c(=N)c3c1CCC3)CCC2`, the AC50 under setting [2] is 2.82 µM [rising, partial curve]. Regarding `Cc1ccc(NC(=O)CCn2c(=O)c3cccn3c3ccccc32)cc1Cl`, the AC50 is 7.08 µM [rising, partial curve, poor fit] under setting [1] and 3.98 µM [rising, full curve, poor fit] under setting [2].

For `COc1cccc(C2CC(c3c(-c4ccccc4)c4cc(Cl)ccc4[nH]c3=O)=NN2S(C)(=O)=O)c1OC` (centres undefined), the concentration at half-maximal activity (AC50) under setting [2] is 35.5 µM [rising, single point]. As for `O=S(=O)(c1ccc(Br)cc1)N1CCCN(Cc2ccccc2F)CC1`, the AC50 under setting [1] was 15.8 µM [rising, single point] and the concentration at half-maximal activity (AC50) under setting [2] was 35.5 µM [rising, single point]. On to `O=C(Nc1ccccc1)c1ccc(Nc2c([N+](=O)[O-])cc([N+](=O)[O-])c3ccccc23)cc1`, for which the AC50 is 3.98 µM [rising, partial curve] under setting [1] and 12.6 µM [rising, partial curve] under setting [2].

The record behind these values is PubChem BioAssay AID1487 (National Center for Advancing Translational Sciences (NCATS), 2009).
